No constants are given. Whether binding was seen depends on the method and setting. In cells and extracts the contact can be indirect.
Target: vascular endothelial growth factor receptor 2 (human (endogenous in HUVECs)) (UniProt P35968)
Test: co-IP; VEGFR2 immunoprecipitated from HUVEC lysates (0.5 µg antibody, 500 µg total protein, protein G-Sepharose, 2 h at 4°C; lysis buffer 0.5% digitonin, 100 mM KCl, 20 mM Hepes pH 7.4); cells without or with geldanamycin for 4 h; goat IgG as control; immunoblotting of the complexes

Amino acid sequences for entries named in this document (tags omitted). Residues count along the entry.
UniProt P35968, residues 20-1356: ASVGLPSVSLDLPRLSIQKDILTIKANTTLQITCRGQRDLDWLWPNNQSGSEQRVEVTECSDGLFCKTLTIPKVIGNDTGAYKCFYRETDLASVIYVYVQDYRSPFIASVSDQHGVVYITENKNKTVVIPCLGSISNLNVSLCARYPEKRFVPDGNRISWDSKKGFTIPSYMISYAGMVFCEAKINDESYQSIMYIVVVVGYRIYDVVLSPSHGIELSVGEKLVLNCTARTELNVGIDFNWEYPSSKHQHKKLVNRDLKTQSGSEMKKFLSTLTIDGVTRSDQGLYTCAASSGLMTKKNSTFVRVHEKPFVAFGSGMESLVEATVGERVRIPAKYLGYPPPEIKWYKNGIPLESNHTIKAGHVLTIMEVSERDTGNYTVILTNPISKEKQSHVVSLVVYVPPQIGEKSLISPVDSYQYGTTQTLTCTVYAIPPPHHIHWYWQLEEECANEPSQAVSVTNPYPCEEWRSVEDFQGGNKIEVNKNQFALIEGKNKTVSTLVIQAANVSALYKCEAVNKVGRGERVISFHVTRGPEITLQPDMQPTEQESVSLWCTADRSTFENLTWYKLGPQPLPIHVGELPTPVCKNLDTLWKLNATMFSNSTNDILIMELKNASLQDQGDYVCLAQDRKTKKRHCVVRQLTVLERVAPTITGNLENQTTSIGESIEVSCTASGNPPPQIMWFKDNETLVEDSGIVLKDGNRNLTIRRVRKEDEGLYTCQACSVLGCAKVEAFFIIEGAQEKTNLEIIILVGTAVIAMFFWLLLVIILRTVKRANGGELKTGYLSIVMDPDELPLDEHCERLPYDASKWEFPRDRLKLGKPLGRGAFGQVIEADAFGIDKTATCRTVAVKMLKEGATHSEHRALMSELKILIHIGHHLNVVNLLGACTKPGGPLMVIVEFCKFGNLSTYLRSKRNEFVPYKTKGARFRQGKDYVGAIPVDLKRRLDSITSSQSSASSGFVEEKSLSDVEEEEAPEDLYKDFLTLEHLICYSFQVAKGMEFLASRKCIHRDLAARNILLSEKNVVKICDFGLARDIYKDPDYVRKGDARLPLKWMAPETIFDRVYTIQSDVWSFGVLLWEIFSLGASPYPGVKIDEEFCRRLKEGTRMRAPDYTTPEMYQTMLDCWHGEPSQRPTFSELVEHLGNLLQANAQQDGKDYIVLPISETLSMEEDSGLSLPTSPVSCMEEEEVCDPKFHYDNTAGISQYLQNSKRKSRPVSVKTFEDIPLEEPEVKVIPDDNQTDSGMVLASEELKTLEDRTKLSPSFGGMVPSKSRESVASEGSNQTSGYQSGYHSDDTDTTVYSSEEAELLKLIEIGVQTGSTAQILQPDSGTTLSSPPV
UniProt Q9UNE7: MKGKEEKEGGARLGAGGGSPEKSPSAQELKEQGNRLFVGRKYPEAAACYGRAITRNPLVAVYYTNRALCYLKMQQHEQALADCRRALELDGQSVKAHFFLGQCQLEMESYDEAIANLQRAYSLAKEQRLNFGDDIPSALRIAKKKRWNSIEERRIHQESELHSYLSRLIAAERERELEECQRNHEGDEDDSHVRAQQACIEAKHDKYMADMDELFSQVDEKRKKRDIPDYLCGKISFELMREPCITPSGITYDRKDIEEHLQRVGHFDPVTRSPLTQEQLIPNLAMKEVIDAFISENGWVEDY
UniProt P08238: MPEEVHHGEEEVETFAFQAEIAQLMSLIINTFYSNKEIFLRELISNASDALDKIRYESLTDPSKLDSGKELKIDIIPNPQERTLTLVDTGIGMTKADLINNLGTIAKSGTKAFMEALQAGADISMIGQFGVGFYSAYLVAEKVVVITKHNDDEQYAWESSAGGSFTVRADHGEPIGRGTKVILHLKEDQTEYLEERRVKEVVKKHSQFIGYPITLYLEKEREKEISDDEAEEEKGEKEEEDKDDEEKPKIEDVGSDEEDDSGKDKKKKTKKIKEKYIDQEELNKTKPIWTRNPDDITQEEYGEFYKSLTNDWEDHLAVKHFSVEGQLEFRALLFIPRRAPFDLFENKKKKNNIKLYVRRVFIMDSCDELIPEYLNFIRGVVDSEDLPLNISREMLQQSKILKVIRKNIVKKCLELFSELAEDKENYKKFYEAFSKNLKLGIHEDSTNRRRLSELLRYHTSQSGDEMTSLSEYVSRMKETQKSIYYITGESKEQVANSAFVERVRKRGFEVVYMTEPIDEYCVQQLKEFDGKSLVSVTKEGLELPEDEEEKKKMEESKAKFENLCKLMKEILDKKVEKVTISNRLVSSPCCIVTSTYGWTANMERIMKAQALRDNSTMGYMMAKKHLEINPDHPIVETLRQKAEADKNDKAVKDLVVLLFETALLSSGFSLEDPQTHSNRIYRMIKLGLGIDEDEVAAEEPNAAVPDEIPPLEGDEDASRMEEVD

Substance: carboxy terminus of HSP70-interacting protein (from UniProt Q9UNE7 1-303) (enzyme)
- binding: no binding

Substance: HSP90β (from UniProt P08238 1-724)
- binding: no binding
